Here are results for one sequence from PMC12849132.

Construct, isoform or probe ends are uncertain for at least one entry. Protein sequences can lack the tags named with them.

For the data set, the target named is T1, PhaR (Ralstonia eutropha H16 (Cupriavidus necator)) (UniProt Q0KBP6).
T1 sequence (looked up, limits assumed): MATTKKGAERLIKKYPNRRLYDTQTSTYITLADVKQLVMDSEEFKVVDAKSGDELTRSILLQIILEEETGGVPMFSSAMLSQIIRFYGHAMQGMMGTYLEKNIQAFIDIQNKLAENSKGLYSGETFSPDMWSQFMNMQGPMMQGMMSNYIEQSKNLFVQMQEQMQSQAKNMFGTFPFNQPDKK
In words: EMSA. To be noted: bound less strongly than F4, shifted at lower PhaR than single sites, supramolecular complexes; EMSA: 0-250 ng PhaR, ~75 ng FAM-DNA, 5 uL master mix (1.75 uL 10x TBE, 0.25 uL 10 mg/mL herring sperm DNA, 3 uL DNA), 30 min at 37 C; 7.5% native PAGE; recombinant protein; label: 5'-FAM on downstream primer; probe letters rebuilt from the primers and the genome.

Consider “TCCGCCGTCAAAAGCCATGTTCGTCAGCGCGAACAGTTGGTTCAGACTGGACTTTTGCACTGCAGCAAATTGCTCGGGCATAAAAGGGGACATGCAAAATCTCCTGTGGATTGATCGAACGGATTCGCGCAACAGATTGCAACGTGAATCCGCTTCGGTTTGGCTTCCGGATTGACAGCGCCACCAATCCTGCAGCGCAGCATCCGAGTGCGAATCCTAGAGGGTTTCCTCTAATTTGATCCCTAGGTATATACCCAAAAAGTCTTTAAAACAGGACAATAAAAGTGCATCGTGAATTCGAT (double strand) [F5 (BS2+BS3, phaP3)]”, for which the binding result is “binds”.
